Results as given in paper PMC5076837.
These are yes or no findings as the source states them, for the method shown. Binding seen in cells or lysates may run through a third protein. Some entries that bind do so weakly or less than the wild type.

Sequences of proteins named here, by UniProt entry; tags and fusion partners are left off. A change or cut given only in a name is not applied to a line headed by its entry.
UniProt Q9Z0U4: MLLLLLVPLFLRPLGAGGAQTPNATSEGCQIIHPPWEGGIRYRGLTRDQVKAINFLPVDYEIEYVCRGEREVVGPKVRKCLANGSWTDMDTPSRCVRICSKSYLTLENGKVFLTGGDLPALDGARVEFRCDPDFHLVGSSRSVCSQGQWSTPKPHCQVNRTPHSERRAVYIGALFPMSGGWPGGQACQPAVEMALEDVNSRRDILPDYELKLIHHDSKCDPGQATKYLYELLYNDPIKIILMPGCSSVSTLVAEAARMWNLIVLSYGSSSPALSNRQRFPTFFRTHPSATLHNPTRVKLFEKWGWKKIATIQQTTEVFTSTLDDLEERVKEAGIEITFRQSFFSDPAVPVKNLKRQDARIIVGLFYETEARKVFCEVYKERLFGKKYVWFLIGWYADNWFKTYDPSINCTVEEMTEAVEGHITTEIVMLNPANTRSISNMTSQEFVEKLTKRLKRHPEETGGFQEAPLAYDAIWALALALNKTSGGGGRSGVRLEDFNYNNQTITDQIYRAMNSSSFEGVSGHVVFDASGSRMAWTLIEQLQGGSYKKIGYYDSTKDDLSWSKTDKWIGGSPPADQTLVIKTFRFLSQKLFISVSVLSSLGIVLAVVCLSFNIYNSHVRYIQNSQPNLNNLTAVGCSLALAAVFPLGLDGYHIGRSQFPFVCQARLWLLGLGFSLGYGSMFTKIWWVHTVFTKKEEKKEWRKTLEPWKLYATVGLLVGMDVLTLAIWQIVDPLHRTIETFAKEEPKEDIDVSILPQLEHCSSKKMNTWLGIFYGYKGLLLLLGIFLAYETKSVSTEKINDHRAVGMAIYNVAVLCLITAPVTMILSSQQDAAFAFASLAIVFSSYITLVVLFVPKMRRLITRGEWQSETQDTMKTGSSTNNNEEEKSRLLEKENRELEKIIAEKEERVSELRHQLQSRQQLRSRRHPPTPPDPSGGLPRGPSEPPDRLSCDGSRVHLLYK
UniProt O88871: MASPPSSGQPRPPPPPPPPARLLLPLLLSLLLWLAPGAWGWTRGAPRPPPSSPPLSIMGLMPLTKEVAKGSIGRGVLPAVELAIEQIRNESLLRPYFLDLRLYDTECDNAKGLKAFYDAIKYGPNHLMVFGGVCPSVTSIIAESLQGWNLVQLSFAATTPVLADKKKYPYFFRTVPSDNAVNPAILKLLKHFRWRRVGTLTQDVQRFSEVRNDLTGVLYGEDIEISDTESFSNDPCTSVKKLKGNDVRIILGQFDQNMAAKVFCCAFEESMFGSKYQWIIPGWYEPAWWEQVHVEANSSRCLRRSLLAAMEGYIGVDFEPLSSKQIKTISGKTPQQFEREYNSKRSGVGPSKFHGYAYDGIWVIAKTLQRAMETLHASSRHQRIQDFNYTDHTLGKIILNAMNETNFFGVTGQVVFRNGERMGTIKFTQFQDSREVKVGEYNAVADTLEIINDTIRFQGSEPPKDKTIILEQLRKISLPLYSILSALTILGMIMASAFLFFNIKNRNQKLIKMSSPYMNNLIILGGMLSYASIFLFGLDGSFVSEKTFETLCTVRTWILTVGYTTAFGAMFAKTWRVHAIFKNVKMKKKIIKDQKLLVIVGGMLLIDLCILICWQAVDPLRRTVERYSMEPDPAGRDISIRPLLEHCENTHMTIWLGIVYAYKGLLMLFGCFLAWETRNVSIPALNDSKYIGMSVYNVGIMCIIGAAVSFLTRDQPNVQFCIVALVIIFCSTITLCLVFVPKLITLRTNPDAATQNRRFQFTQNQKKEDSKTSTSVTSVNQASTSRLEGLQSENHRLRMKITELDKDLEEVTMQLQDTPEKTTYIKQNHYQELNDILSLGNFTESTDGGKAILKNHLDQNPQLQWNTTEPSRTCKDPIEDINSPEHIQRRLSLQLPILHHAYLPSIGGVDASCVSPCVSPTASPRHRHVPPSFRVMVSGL

Molecular target: GABAB receptors (heterodimers of GABAB1 and GABAB2 subunits) (rat (endogenous in cultured cortical neurons)) (UniProt Q9Z0U4+O88871)
Assay: proximity ligation; in situ PLA (Duolink) in cultured rat cortical neurons with mouse GABAB1 and rabbit MIB2 antibodies; untreated neurons, and neurons treated with glutamate for 15 or 30 min (interaction increased)

- binding: binds
B1: E3 ligase Mind bomb-2 (MIB2) (enzyme, UniProt Q68LP1 1-971)
chain: MDLDPHAGVQVGMRVVRGMDWKWGQQDGGEGGVGTVVELGRHGSPSTPDRTVVVQWDQGTRTNYRAGYQGAHDLLLYDNAQIGIRHPNIICDCCKKHGLRGMRWKCRVCFDYDLCTQCYMHNKHDLTHAFERYETSHSRPVTLSPRQGLPRIPLRGIFQGAKVVRGPDWEWGSQDGGEGKTGRVVDIRGWDVETGRSVASVTWADGTTNVYRVGHKGKVDLKCVGEAAGGFYYKEHLPKLGKPAELQRRVSADGQPFQRGDKVKCLLDTDVLRDMQEGHGGWNPRMAEFIGQMGTVHRITDRGDVRVQFNHETRWTFHPGALTKHNSFWVGDVVRVIDDLDTVKRLQAGHGEWTDDMAPALGRVGKVVKVFGDGNLRVAVGGQRWTFSPACLVACRPEEDANLGVAERARENKSAASVPVAGSLSVALDKLRTQKSDPEHPGRLVVEAALGNVARALDLLRRHPEQAGFHPAVDTKNQGRTALQVAAYLGQVELVRLLLQARASVDLLDEEGNTALHYTAMGNQPEATRLLLSAGCGVDAQNGTRSTALHVAVQRGFLEVVKILCEHGCDVNLPDAHADTPLHSAISAGAGASSIVEVLTEVPGIDVTATNSQGFTLLHHASLKGHVLAVRKILARARQLVDAKKEDGFTALHLAALNNHREVAQVLIREGRCDVNVRNRKLQSPLHLAVQQAHLGLVPLLVDAGCNVNTEDEEGDTALHVALQRHQLLPLVADRAGGDPGPLQLLSRLQASGLPGSTELTVGAAVACFLALEGADVSYANHRGRSPLDLATEGRVLKALQGCAQRFRERQAGGGGGVPPGPRHVLSTPNTVTNLHVSGTAGPEAAECLVCSELALLVLFSPCQHRTVCEECARRMKKCIRCQVIISKKLRPDGSEVVNAIQVPGPPRQLVEELQSRYRQMEERITCPICIDSHIRLVFQCGHGACAPCGAALNACPICRQPIRDRIQIFV
